In the supplement of paper PMC10331698:
± gives the standard deviation of the averaged measurements. Most entries show no effect beyond the scatter of the controls.

Experiments:
Assay in all cases: level (log10 ratio to DMSO vehicle control); higher = higher biomarker level / cell amount than vehicle control
[1] = compound: C=C(C)C(=O)OCC(F)(F)C(F)(F)C(F)(F)C(F)(F)C(F)(F)C(F)(F)C(F)(F)F; conditions: in DMSO
Description: (§1)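 BioMAP Diversity Plus panel of 12 human primary cell co-culture systems (3C, 4H, LPS, SAg, BT, BF4T, BE3C, CASM3C, HDF3CGF, KF3CT, MyoF, Mphg). Compounds were added 1 h before stimulation and left for 24 h (MyoF 48 h; BT 72 h for soluble read-outs or 6 d for IgG). Biomarkers were read by ELISA, cytotoxicity by SRB, PBMC viability and proliferation by Alamar Blue. Each well value was divided by the mean of 8 DMSO control wells on the same plate and log10 transformed; duplicate blinded samples were tested at 4 concentrations.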

[2] = compound: C=CC(=O)OCC(F)(F)C(F)(F)C(F)(F)C(F)(F)C(F)(F)C(F)(F)C(F)(F)F [1H,1H-Perfluorooctyl acrylate]; conditions: 2200 nM; in DMSO
Description: as §1

[3] = compound: C=CC(F)(F)C(F)(F)C(F)(F)C(F)(F)C(F)(F)C(F)(F)C(F)(F)C(F)(F)C=C [1,8-Divinylperfluorooctane]; conditions: in DMSO
Description: as §1

[4] = compound: COC(=O)C(F)(F)C(F)(F)OC(F)(C(F)(F)F)C(F)(F)OC(F)=C(F)F [Methyl perfluoro(3-(1-ethenyloxypropan-2-yloxy)propanoate)]; conditions: in DMSO
Description: as §1

[5] = compound: CO[Si](C)(CCC(F)(F)C(F)(F)C(F)(F)C(F)(F)C(F)(F)C(F)(F)F)OC [Dimethoxymethyl((perfluorohexyl)ethyl)silane]; conditions: in DMSO
Description: as §1

[6] = compound: FC(F)(F)C(F)(F)C(F)(F)CC1CO1 [1H,1H-Heptafluorobutyl epoxide]; conditions: 2200 nM; in DMSO
Description: as §1

[7] = compound: FC(F)(F)C(F)(F)C(F)(F)CI [Heptafluorobutyl iodide]; conditions: 2200 nM; in DMSO
Description: as §1

[8] = compound: NC(=O)C(F)(F)C(F)(F)C(F)(F)C(F)F; conditions: in DMSO
Description: as §1

[9] = compound: NC(=O)C(F)(F)C(F)(F)F [Pentafluoropropionamide]; conditions: 2200 nM; in DMSO
Description: as §1

[10] = compound: NS(=O)(=O)C(F)(F)C(F)(F)C(F)(F)C(F)(F)C(F)(F)C(F)(F)C(F)(F)C(F)(F)F [Perfluorooctanesulfonamide]; conditions: in DMSO
Description: as §1

[11] = compound: O=C(O)C(F)(F)C(F)(F)C(F)F [4H-Perfluorobutanoic acid]; conditions: in DMSO
Description: as §1

[12] = compound: O=P(O)(O)CCC(F)(F)C(F)(F)C(F)(F)C(F)(F)C(F)(F)C(F)(F)F [2-(Perfluorohexyl)ethylphosphonic acid]; conditions: 2200 nM; in DMSO
Description: as §1

[13] = compound: O=S(=O)(F)C(F)(F)C(F)(F)C(F)(F)C(F)(F)C(F)(F)C(F)(F)C(F)(F)C(F)(F)F [Perfluorooctanesulfonyl fluoride]; conditions: 2200 nM; in DMSO
Description: as §1

[14] = compound: O=S(=O)(O)C(F)(F)C(F)(F)C(F)(F)C(F)(F)C(F)(F)C(F)(F)C(F)(F)C(F)(F)F [Perfluorooctanesulfonic acid]; conditions: 2200 nM; in DMSO
Description: as §1

[15] = compound: O=S(=O)(O)C(F)(F)C(F)(F)C(F)(F)C(F)(F)C(F)(F)C(F)(F)C(F)(F)C(F)(F)F [Potassium perfluorooctanesulfonate]; conditions: 2200 nM; in DMSO
Description: as §1

[16] = compound: O=S(=O)(OCC(F)(F)F)C(F)(F)C(F)(F)C(F)(F)C(F)(F)F [2,2,2-Trifluoroethyl perfluorobutanesulfonate]; conditions: 2200 nM; in DMSO
Description: as §1

[17] = compound: OCC(F)(F)C(F)(F)C(F)(F)C(F)(F)C(F)(F)C(F)F [1H,1H,7H-Dodecafluoro-1-heptanol]; conditions: 2200 nM; in DMSO
Description: as §1

[18] = compound: OCCCCC(F)(F)C(F)(F)C(F)(F)C(F)(F)F [4:4 Fluorotelomer alcohol]; conditions: 2200 nM; in DMSO
Description: as §1

Test System	level (log10) ([1]; 740 nM)	level (log10) ([1]; 2200 nM)	level (log10) [2]	level (log10) ([3]; 740 nM)	level (log10) ([3]; 2200 nM)	level (log10) ([4]; 740 nM)	level (log10) ([4]; 2200 nM)	level (log10) ([5]; 740 nM)	level (log10) ([5]; 2200 nM)	level (log10) [6]	level (log10) [7]	level (log10) ([8]; 2200 nM)	level (log10) ([8]; 6700 nM)	level (log10) ([8]; 20000 nM)	level (log10) ([8]; 60000 nM)	level (log10) [9]	level (log10) ([10]; 2200 nM)	level (log10) ([10]; 6700 nM)	level (log10) ([10]; 20000 nM)	level (log10) ([11]; 2200 nM)	level (log10) ([11]; 6700 nM)	level (log10) ([11]; 20000 nM)	level (log10) ([11]; 60000 nM)	level (log10) [12]	level (log10) [13]	level (log10) [14]	level (log10) [15]	level (log10) [16]	level (log10) [17]	level (log10) [18]
MyoF:CD106/VCAM-1	0.002 ± 0.021	0.0015 ± 0.005	0.007 ± 0.0057	-0.01 ± 0.0014	0.0145 ± 0.00071	-0.0085 ± 0.021	-0.021 ± 0.017	-0.0215 ± 0.016	-0.01 ± 0.0071	-0.0335 ± 0.005	-0.022 ± 0.017	-0.0085 ± 0.005	-0.0085 ± 0.013	-0.0205 ± 0.013	-0.0235 ± 0.013	-0.0145 ± 0.021	-0.0005 ± 0.028	-0.005 ± 0.023	-0.293 ± 0.088	-0.0035 ± 0.0064	-0.0065 ± 0.011	-0.017 ± 0.0071	0.0135 ± 0.015	0.0075 ± 0.016	-0.0045 ± 0.0064	0.008 ± 0.025	-0.001 ± 0.013	0.0045 ± 0.033	-0.0035 ± 0.0064	-0.002 ± 0.018
4H:SRB	0.0185 ± 0.012	-0.0005 ± 0.025	0.0095 ± 0.016	0.009 ± 0.0071	0.009 ± 0.011	0.0135 ± 0.022	-0.0075 ± 0.005	0.01 ± 0.0057	0.016 ± 0.021	0.0075 ± 0.011	-0.0015 ± 0.005	-0.019 ± 0.018	-0.0195 ± 0.0078	-0.0055 ± 0.005	-0.017 ± 0.021	0.0145 ± 0.0021	0.0145 ± 0.018	-0.005 ± 0.011	-0.0815 ± 0.0021	0.004 ± 0.014	-0.0085 ± 0.0092	-0.003 ± 0.0071	0.0055 ± 0.0035	-0.0105 ± 0.005	0.0045 ± 0.0078	0.006 ± 0.0099	-0.007 ± 0.0085	0.003 ± 0.0071	-0.0065 ± 0.0021	-0.0025 ± 0.00071
LPS:CD142/Tissue Factor	0.0025 ± 0.04	0.008 ± 0.054	0.007 ± 0.011	-0.038 ± 0.055	-0.0615 ± 0.00071	-0.0045 ± 0.015	0.005 ± 0.052	0.01 ± 0.0042	-0.0215 ± 0.0021	0.03 ± 0.03	-0.0325 ± 0.06	-0.011 ± 0.018	-0.0215 ± 0.00071	0.005 ± 0.0028	-0.007 ± 0.0014	-0.0435 ± 0.03	-0.006 ± 0.065	-0.024 ± 0.047	-0.043 ± 0.0071	0.0115 ± 0.019	-0.0205 ± 0.032	0.015 ± 0.033	0.0185 ± 0.0092	0.0185 ± 0.11	0.0125 ± 0.0064	0.0125 ± 0.026	0 ± 0.05	-0.0735 ± 0.033	-0.008 ± 0.0014	0.03 ± 0.021
4H:CD106/VCAM-1	0.014 ± 0.028	-0.0145 ± 0.011	0.0255 ± 0.057	0.016 ± 0.0042	-0.0195 ± 0.025	0.025 ± 0.016	-0.0055 ± 0.005	0.0085 ± 0.033	0.0065 ± 0.046	0.0255 ± 0.00071	-0.011 ± 0.028	-0.0125 ± 0.022	-0.0145 ± 0.005	-0.021 ± 0.0085	-0.007 ± 0.0057	0.0235 ± 0.0078	0.0205 ± 0.00071	0.013 ± 0.034	-0.0335 ± 0.044	0.002 ± 0.0014	-0.003 ± 0.014	-0.0165 ± 0.011	0.0065 ± 0.011	0.0155 ± 0.012	0.0135 ± 0.094	0.017 ± 0.0071	0.008 ± 0.028	-0.013 ± 0.013	0.014 ± 0.018	0.032 ± 0.0028
BE3C:HLA-DR	0.002 ± 0.0071	-0.0075 ± 0.0021	-0.0075 ± 0.005	0.014 ± 0.028	0.005 ± 0.017	-0.003 ± 0.023	-0.003 ± 0.04	0.019 ± 0.037	-0.0055 ± 0.025	-0.0005 ± 0.005	-0.022 ± 0.0014	0.003 ± 0.025	0.0065 ± 0.016	0.008 ± 0.0057	-0.0025 ± 0.023	-0.0015 ± 0.012	-0.028 ± 0.014	-0.0975 ± 0.013	-0.136 ± 0.011	0.002 ± 0.014	-0.023	-0.022 ± 0.0085	-0.0005 ± 0.028	0.02 ± 0.027	-0.008 ± 0.0071	-0.0035 ± 0.044	0.0125 ± 0.026	0.004 ± 0.016	0.0205 ± 0.033	0.006 ± 0.051
3C:CXCL9/MIG	0.0025 ± 0.0021	0.0005 ± 0.011	-0.0045 ± 0.019	-0.0065 ± 0.021	-0.009 ± 0.0042	0.0025 ± 0.018	-0.01 ± 0.0071	0.0085 ± 0.0078	-0.0055 ± 0.005	0.0005 ± 0.0035	-0.005 ± 0.0028	-0.0025 ± 0.0078	-0.0095 ± 0.011	-0.012 ± 0.0014	-0.0045 ± 0.0021	0.0025 ± 0.0064	0.028 ± 0.0028	0.0225 ± 0.021	0.006 ± 0.028	-0.0025 ± 0.0021	0.005 ± 0.0042	0.0035 ± 0.013	0.012 ± 0.0014	0.001 ± 0.0042	-0.004 ± 0.014	0.0035 ± 0.011	0.002 ± 0.0099	0.0075 ± 0.0064	-0.0015 ± 0.0078	0.0145 ± 0.00071
BE3C:SRB	0.0035 ± 0.0021	0.0005 ± 0.0021	-0.003 ± 0.0028	0.0015 ± 0.00071	-0.001 ± 0.0042	-0.0005 ± 0.0078	-0.012	0.001 ± 0.0014	-0.0045 ± 0.0021	-0.002 ± 0.0042	0.0135 ± 0.018	-0.0005 ± 0.0064	-0.0035 ± 0.0035	0.0005 ± 0.005	-0.0055 ± 0.0021	0.0015 ± 0.0021	0.0005 ± 0.005	-0.0145 ± 0.0021	-0.0315 ± 0.00071	-0.0005 ± 0.0035	-0.003 ± 0.0014	-0.004 ± 0.0099	0.0025 ± 0.0021	0.0055 ± 0.0064	-0.006 ± 0.0042	0 ± 0.023	0.0035 ± 0.019	0.0025 ± 0.0021	-0.0005 ± 0.026	-0.001 ± 0.0042
LPS:CD141/Thrombomodulin	0.0055 ± 0.044	-0.0195 ± 0.019	-0.0225 ± 0.019	-0.0235 ± 0.026	-0.018 ± 0.03	-0.0325 ± 0.0092	-0.0425 ± 0.015	0.029 ± 0.037	0.0105 ± 0.035	0.085 ± 0.03	0.005 ± 0.11	-0.0465 ± 0.005	-0.037 ± 0.023	-0.0225 ± 0.028	-0.02 ± 0.021	-0.017 ± 0.013	0.0765 ± 0.018	0.037 ± 0.072	0.0785 ± 0.066	-0.0075 ± 0.0021	-0.009	-0.012 ± 0.016	-0.008 ± 0.013	0.01 ± 0.15	-0.0005 ± 0.0064	-0.0115 ± 0.011	-0.015 ± 0.016	0.031 ± 0.023	0.018 ± 0.064	0.0105 ± 0.0021
